Where two headings read alike, the source gives them in different places. Results are given in words; binding and its absence hold for the method and conditions named. Binding seen in cells or lysates may run through a third protein. Some entries that bind do so weakly or less than the wild type.

Protein sequences, listed by entry. Tags and fused reporters are not part of them. Lines headed by an entry give the natural chain unless they say otherwise; changes in a name come on top. Chains listed by the source or under a name are the forms on record and can include a tag or linker.
UniProt Q9HAU5: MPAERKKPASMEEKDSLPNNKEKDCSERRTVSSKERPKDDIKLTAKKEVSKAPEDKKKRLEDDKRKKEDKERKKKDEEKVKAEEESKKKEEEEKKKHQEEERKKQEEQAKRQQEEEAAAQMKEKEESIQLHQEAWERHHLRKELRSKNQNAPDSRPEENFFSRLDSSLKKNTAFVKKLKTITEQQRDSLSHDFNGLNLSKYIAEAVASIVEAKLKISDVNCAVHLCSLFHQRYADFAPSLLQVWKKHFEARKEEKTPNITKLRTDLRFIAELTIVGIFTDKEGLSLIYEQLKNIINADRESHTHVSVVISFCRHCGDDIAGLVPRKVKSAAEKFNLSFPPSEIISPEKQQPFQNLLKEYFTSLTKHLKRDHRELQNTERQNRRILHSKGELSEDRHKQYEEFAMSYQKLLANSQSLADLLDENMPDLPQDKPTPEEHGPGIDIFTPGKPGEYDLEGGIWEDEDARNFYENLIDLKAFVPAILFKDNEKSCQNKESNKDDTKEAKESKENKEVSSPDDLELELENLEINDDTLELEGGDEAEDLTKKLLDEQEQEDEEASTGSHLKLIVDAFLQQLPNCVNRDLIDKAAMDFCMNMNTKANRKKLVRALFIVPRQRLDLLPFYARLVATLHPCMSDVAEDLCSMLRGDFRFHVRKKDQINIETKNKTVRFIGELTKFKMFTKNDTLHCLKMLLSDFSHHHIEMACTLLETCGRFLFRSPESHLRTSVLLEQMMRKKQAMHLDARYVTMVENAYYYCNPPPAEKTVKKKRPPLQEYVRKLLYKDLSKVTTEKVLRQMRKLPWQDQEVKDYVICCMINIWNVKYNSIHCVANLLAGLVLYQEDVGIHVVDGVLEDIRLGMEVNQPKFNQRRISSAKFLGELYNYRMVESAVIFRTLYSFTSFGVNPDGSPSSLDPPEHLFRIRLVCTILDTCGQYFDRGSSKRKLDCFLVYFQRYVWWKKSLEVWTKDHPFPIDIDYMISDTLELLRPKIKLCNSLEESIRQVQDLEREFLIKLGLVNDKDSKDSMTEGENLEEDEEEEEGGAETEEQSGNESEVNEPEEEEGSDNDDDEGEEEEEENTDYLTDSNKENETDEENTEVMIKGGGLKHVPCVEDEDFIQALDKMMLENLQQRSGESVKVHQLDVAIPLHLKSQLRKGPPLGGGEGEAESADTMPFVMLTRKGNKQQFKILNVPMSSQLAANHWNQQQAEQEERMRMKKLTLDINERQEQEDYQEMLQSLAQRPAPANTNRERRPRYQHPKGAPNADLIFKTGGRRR
UniProt Q96J94: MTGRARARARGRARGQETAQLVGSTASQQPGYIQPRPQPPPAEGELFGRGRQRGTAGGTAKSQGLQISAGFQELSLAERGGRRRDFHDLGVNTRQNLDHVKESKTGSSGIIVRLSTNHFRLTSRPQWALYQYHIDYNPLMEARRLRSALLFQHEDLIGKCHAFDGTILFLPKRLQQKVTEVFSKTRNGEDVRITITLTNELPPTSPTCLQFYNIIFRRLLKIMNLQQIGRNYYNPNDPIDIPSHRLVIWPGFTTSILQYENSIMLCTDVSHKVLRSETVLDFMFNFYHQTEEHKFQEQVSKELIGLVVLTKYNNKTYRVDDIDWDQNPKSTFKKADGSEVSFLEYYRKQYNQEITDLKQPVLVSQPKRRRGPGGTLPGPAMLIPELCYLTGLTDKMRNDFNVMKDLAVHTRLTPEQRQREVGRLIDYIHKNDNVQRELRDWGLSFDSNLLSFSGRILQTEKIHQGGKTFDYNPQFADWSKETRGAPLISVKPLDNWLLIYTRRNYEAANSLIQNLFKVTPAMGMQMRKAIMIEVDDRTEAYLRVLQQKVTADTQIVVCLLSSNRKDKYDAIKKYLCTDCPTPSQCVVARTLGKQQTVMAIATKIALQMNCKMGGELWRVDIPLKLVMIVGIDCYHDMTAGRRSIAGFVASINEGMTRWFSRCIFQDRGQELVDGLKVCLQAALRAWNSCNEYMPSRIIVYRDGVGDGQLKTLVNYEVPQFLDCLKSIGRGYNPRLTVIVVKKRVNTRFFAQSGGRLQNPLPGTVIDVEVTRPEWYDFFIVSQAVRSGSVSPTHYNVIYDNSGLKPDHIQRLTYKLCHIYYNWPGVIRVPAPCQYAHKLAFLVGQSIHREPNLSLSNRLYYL
Flag-piRNA-BM-PIWIL1 (Q96J94, form named): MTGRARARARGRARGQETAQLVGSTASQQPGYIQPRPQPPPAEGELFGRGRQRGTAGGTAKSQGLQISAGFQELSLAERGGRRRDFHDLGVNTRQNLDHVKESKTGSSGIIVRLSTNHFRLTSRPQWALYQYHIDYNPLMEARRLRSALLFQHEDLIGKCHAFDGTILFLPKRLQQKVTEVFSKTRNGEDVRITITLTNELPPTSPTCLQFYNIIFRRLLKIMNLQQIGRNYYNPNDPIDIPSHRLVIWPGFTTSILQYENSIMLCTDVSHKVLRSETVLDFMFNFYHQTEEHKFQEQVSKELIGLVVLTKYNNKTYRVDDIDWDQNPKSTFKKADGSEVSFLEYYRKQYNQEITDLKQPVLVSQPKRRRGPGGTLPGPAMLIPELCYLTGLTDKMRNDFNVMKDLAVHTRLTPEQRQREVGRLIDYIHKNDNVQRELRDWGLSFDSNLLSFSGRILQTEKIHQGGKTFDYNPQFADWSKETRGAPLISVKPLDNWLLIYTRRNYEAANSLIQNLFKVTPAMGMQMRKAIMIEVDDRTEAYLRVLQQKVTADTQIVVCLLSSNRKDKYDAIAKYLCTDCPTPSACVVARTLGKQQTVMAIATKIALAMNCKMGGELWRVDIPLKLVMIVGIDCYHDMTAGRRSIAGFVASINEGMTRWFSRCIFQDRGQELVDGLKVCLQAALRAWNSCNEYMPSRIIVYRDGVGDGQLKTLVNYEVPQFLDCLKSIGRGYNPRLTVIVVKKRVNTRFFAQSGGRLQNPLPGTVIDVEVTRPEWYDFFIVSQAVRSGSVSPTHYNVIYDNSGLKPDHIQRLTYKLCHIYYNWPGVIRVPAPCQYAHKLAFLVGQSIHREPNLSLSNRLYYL
Flag-PIWIL1-ΔNΔC (Q96J94, form named): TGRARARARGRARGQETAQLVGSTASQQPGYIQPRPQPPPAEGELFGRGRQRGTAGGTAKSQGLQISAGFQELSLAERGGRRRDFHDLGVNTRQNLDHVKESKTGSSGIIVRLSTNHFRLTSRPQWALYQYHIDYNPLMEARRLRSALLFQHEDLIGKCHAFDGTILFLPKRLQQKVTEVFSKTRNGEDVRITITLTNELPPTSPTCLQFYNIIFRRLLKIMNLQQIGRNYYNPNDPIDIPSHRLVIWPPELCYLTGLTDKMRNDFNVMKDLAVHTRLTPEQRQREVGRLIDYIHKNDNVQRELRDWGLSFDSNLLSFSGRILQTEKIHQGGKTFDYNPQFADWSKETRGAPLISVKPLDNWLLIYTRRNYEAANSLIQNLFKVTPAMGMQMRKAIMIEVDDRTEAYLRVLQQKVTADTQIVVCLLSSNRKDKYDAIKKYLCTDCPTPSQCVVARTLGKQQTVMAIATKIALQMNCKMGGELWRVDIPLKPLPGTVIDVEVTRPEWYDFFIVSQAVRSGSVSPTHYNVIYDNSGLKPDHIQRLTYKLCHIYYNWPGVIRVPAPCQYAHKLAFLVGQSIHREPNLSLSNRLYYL

In paper doi:10.1101/2020.05.03.075390 one finds binding data, which are given here for five molecules.

Holding throughout (assay): co-IP
For test [1], the target named is UPF2 (human (endogenous in SNU-1)) (UniProt Q9HAU5).
Test [2] concerns the target T1, phosphorylated UPF1 (human (endogenous in SNU-1)) (UniProt Q92900).
T1 sequence (chain, phosphorylated; recognised by an anti-phospho-Upf1 (Ser1127) antibody): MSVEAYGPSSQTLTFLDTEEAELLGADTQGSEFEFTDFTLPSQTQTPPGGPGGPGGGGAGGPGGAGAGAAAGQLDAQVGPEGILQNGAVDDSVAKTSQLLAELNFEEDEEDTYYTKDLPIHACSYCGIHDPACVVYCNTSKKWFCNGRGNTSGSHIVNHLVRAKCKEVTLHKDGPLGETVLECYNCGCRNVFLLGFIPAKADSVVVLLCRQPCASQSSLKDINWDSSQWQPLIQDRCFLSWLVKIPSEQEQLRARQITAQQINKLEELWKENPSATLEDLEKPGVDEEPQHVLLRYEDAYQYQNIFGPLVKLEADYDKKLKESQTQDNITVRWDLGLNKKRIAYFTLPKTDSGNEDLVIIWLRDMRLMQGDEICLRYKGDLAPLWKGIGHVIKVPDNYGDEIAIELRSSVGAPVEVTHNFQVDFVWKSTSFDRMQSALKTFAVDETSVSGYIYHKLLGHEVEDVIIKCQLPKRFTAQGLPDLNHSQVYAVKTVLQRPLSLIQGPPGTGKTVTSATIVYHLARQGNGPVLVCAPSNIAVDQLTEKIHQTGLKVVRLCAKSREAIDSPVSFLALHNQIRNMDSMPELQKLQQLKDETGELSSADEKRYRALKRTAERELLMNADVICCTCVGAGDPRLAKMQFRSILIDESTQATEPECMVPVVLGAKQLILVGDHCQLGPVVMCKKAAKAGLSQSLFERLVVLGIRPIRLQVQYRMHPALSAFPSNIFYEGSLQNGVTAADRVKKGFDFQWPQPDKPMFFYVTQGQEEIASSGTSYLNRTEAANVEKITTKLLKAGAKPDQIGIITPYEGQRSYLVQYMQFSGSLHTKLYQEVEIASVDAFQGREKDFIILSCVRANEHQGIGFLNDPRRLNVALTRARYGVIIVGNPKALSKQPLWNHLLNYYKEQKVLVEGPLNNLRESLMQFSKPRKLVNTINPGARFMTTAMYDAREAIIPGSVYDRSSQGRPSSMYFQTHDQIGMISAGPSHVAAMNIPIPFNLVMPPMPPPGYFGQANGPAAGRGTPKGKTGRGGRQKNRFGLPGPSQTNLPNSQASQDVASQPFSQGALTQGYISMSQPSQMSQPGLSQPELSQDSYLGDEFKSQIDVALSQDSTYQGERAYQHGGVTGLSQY

Test [3] deals with T2, UPF1 (Up-Frameshift-1) (human (endogenous in SNU-1)) (UniProt Q92900).
T2 sequence: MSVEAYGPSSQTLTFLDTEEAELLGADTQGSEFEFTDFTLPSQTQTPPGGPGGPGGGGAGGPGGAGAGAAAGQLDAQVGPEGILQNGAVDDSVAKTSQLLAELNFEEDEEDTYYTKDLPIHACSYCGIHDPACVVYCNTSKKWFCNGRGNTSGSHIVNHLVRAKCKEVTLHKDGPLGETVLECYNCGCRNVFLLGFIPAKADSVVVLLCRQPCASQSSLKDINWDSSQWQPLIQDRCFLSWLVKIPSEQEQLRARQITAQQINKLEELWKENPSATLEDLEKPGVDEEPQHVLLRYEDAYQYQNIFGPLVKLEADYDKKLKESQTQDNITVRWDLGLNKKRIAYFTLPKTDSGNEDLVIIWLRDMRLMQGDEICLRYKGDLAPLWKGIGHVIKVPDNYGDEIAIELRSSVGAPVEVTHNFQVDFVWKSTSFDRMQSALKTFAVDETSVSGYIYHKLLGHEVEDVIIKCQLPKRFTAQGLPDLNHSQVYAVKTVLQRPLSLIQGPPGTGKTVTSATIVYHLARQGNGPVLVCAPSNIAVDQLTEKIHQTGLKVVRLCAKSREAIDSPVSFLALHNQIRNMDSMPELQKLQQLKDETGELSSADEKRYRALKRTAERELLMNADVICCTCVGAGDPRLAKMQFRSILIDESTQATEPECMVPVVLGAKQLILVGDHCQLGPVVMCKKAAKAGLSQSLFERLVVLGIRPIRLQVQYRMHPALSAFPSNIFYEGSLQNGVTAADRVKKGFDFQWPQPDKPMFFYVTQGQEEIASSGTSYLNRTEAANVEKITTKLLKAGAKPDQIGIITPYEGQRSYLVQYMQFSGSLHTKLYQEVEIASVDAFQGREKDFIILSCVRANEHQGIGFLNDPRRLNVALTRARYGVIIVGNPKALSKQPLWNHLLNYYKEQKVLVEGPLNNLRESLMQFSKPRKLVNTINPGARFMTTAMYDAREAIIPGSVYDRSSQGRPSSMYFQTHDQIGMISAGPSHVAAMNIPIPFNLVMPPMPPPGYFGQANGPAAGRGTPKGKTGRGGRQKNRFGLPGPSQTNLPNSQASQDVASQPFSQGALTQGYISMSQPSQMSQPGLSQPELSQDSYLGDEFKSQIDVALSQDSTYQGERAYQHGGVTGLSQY

The target of test [4] is PIWIL1 (PIWI-Like 1) (human (endogenous in SNU-1 and AGS)) (UniProt Q96J94).
The target in test [5] is Flag-piRNA-BM-PIWIL1 (human) (UniProt Q96J94).
The target in the next test is Flag-PIWIL1-FL (human) (UniProt Q96J94).
The target in another test is Flag-PIWIL1-ΔNΔC (human) (UniProt Q96J94).
In test [6] the target is PIWIL1 (PIWI-Like 1) (human (endogenous in SNU-1 and AGS)) (UniProt Q96J94). This is another data set of the same source.

In the case of “PIWIL1 (PIWI-Like 1) (from UniProt Q96J94 1-861)”, the binding result in test [1], in test [2] and in test [3] was “binds” in each case.
Consider SMG1 (from UniProt Q96Q15 1-3661), for which the binding result in test [4] is “binds”.
With UPF2 (from UniProt Q9HAU5 1-1272), the binding result in test [4] is given as “binds”.

B1: UPF1 (Up-Frameshift-1) (protein, UniProt Q92900 1-1129)
chain: MSVEAYGPSSQTLTFLDTEEAELLGADTQGSEFEFTDFTLPSQTQTPPGGPGGPGGGGAGGPGGAGAGAAAGQLDAQVGPEGILQNGAVDDSVAKTSQLLAELNFEEDEEDTYYTKDLPIHACSYCGIHDPACVVYCNTSKKWFCNGRGNTSGSHIVNHLVRAKCKEVTLHKDGPLGETVLECYNCGCRNVFLLGFIPAKADSVVVLLCRQPCASQSSLKDINWDSSQWQPLIQDRCFLSWLVKIPSEQEQLRARQITAQQINKLEELWKENPSATLEDLEKPGVDEEPQHVLLRYEDAYQYQNIFGPLVKLEADYDKKLKESQTQDNITVRWDLGLNKKRIAYFTLPKTDSGNEDLVIIWLRDMRLMQGDEICLRYKGDLAPLWKGIGHVIKVPDNYGDEIAIELRSSVGAPVEVTHNFQVDFVWKSTSFDRMQSALKTFAVDETSVSGYIYHKLLGHEVEDVIIKCQLPKRFTAQGLPDLNHSQVYAVKTVLQRPLSLIQGPPGTGKTVTSATIVYHLARQGNGPVLVCAPSNIAVDQLTEKIHQTGLKVVRLCAKSREAIDSPVSFLALHNQIRNMDSMPELQKLQQLKDETGELSSADEKRYRALKRTAERELLMNADVICCTCVGAGDPRLAKMQFRSILIDESTQATEPECMVPVVLGAKQLILVGDHCQLGPVVMCKKAAKAGLSQSLFERLVVLGIRPIRLQVQYRMHPALSAFPSNIFYEGSLQNGVTAADRVKKGFDFQWPQPDKPMFFYVTQGQEEIASSGTSYLNRTEAANVEKITTKLLKAGAKPDQIGIITPYEGQRSYLVQYMQFSGSLHTKLYQEVEIASVDAFQGREKDFIILSCVRANEHQGIGFLNDPRRLNVALTRARYGVIIVGNPKALSKQPLWNHLLNYYKEQKVLVEGPLNNLRESLMQFSKPRKLVNTINPGARFMTTAMYDAREAIIPGSVYDRSSQGRPSSMYFQTHDQIGMISAGPSHVAAMNIPIPFNLVMPPMPPPGYFGQANGPAAGRGTPKGKTGRGGRQKNRFGLPGPSQTNLPNSQASQDVASQPFSQGALTQGYISMSQPSQMSQPGLSQPELSQDSYLGDEFKSQIDVALSQDSTYQGERAYQHGGVTGLSQY
Take B1: the binding result in test [5] is listed as “binds”; with Flag-PIWIL1-FL (human) it was “binds”; with Flag-PIWIL1-ΔNΔC (human) it was “no binding”; in test [6], “binds”.

B2: phosphorylated UPF1 (protein, UniProt Q92900 1-1129)
chain: MSVEAYGPSSQTLTFLDTEEAELLGADTQGSEFEFTDFTLPSQTQTPPGGPGGPGGGGAGGPGGAGAGAAAGQLDAQVGPEGILQNGAVDDSVAKTSQLLAELNFEEDEEDTYYTKDLPIHACSYCGIHDPACVVYCNTSKKWFCNGRGNTSGSHIVNHLVRAKCKEVTLHKDGPLGETVLECYNCGCRNVFLLGFIPAKADSVVVLLCRQPCASQSSLKDINWDSSQWQPLIQDRCFLSWLVKIPSEQEQLRARQITAQQINKLEELWKENPSATLEDLEKPGVDEEPQHVLLRYEDAYQYQNIFGPLVKLEADYDKKLKESQTQDNITVRWDLGLNKKRIAYFTLPKTDSGNEDLVIIWLRDMRLMQGDEICLRYKGDLAPLWKGIGHVIKVPDNYGDEIAIELRSSVGAPVEVTHNFQVDFVWKSTSFDRMQSALKTFAVDETSVSGYIYHKLLGHEVEDVIIKCQLPKRFTAQGLPDLNHSQVYAVKTVLQRPLSLIQGPPGTGKTVTSATIVYHLARQGNGPVLVCAPSNIAVDQLTEKIHQTGLKVVRLCAKSREAIDSPVSFLALHNQIRNMDSMPELQKLQQLKDETGELSSADEKRYRALKRTAERELLMNADVICCTCVGAGDPRLAKMQFRSILIDESTQATEPECMVPVVLGAKQLILVGDHCQLGPVVMCKKAAKAGLSQSLFERLVVLGIRPIRLQVQYRMHPALSAFPSNIFYEGSLQNGVTAADRVKKGFDFQWPQPDKPMFFYVTQGQEEIASSGTSYLNRTEAANVEKITTKLLKAGAKPDQIGIITPYEGQRSYLVQYMQFSGSLHTKLYQEVEIASVDAFQGREKDFIILSCVRANEHQGIGFLNDPRRLNVALTRARYGVIIVGNPKALSKQPLWNHLLNYYKEQKVLVEGPLNNLRESLMQFSKPRKLVNTINPGARFMTTAMYDAREAIIPGSVYDRSSQGRPSSMYFQTHDQIGMISAGPSHVAAMNIPIPFNLVMPPMPPPGYFGQANGPAAGRGTPKGKTGRGGRQKNRFGLPGPSQTNLPNSQASQDVASQPFSQGALTQGYISMSQPSQMSQPGLSQPELSQDSYLGDEFKSQIDVALSQDSTYQGERAYQHGGVTGLSQY
modifications: phosphorylated; recognised by an anti-phospho-Upf1 (Ser1127) antibody
On to B2, for which the binding entry in test [6] is on record as “binds”.
